We go through 25 compounds from PubChem BioAssay AID248 (DTP/NCI, 2004).

The list is a part of this screen's results and no random one: it is rich in T/C values a quarter to a half above the control, in often repeated tests (any T/C) and in doses without a T/C. Further doses and runs are listed elsewhere. T/C is the treated group as % of the vehicle group. Some entries give survivors of the animals treated and no T/C: the source files T/C as zero there, which appears to mark a toxic dose or a test without result, not a measured value. Some survivor counts are full or nearly so, which does not show that the dose was tolerated: the source hardly ever lists a survival T/C far under the control, and the zero likely stands for such cases as well. Survivors were counted at the toxicity check, usually on the fifth day, unless a day is given; later deaths do not show. Schedule codes are those of the source, taken here to give the interval after Q, in days (D) or hours (H), and the number of doses after X. Some entries were tested several times; their values stand side by side, smallest first. Some schedules carry Z or #; the key to these is not given. Some structures stand for samples that the source files as different forms (salt, stereo form or complex); doses refer to the form tested. Where survival is the endpoint, this PubChem deposit counts one and a half times the control or more as active, and values a quarter to a half above the control carry no call in these data; other NCI protocols may use other cut-offs.

The subject of the assay is L1210 leukemia ip in BDF1 mice, survival T/C. Kind of assay: NCI In Vivo Anticancer Drug Screen. Data for tumor model L1210 Leukemia (intraperitoneal) in B6D2F1 (BDF1) mice. The note with it: T/C endpoint: mean survival time, higher T/C = longer survival.
Where [1] appears, read: dose: 300.0 mg/kg/injection, schedule: Q01DX001 (ip), vehicle: other.
[2] abbreviates: dose: 100.0 mg/kg/injection, schedule: Q04DX003 (ip), vehicle: saline with Tween-80.
Where [3] appears, read: dose: 100.0 mg/kg/injection, schedule: Q04DX003 (ip), vehicle: saline.
The mark [4] stands for this setting: dose: 200.0 mg/kg/injection, schedule: Q04DX003 (ip), vehicle: saline.
The mark [5] stands for this setting: dose: 400.0 mg/kg/injection, schedule: Q01DX009 (ip), vehicle: Klucel (hydroxypropylcellulose) (HPC).
[6] abbreviates: dose: 400.0 mg/kg/injection, schedule: Q01DX001 (ip), vehicle: Klucel (hydroxypropylcellulose) (HPC).
Where [7] appears, read: dose: 400.0 mg/kg/injection, schedule: Q01DX001 (ip), vehicle: saline.
Where [8] appears, read: dose: 50.0 mg/kg/injection, schedule: Q01DX009 (ip), vehicle: saline with Tween-80.
The mark [9] stands for this setting: dose: 75.0 mg/kg/injection, schedule: Q01DX009 (ip), vehicle: saline with Tween-80.
The mark [10] stands for this setting: dose: 400.0 mg/kg/injection, schedule: Q04DX003 (ip), vehicle: Klucel (hydroxypropylcellulose) (HPC).
The mark [11] stands for this setting: dose: 200.0 mg/kg/injection, schedule: Q04DX003 (ip), vehicle: saline with Tween-80.
[12] abbreviates: dose: 400.0 mg/kg/injection, schedule: Q04DX003 (ip), vehicle: saline with Tween-80.
The mark [13] stands for this setting: dose: 200.0 mg/kg/injection, schedule: Q01DX009 (ip), vehicle: saline with Tween-80.

With `Nc1nc2ncc(CNc3nc(C(=O)NC(CCC(=O)O)C(=O)O)cs3)nc2c(=O)[nH]1` (stereo not drawn), under setting [1], the survivor count is recorded as 0 of 6.
Regarding `O=C([O][Hg][C](F)(F)F)C(F)(F)F`, the survivor count is recorded as 0 of 3 (dose: 25.0 mg/kg/injection, schedule: Q04DX003 (ip), vehicle: saline with Tween-80); 0 of 3 (dose: 50.0 mg/kg/injection, schedule: Q04DX003 (ip), vehicle: saline with Tween-80); 0 of 3 under setting [2].
Regarding `COC(=O)C1=CCCN(C)C1`, the survivor count under setting [3] is 2 of 4 and 6 of 6; the survivor count under setting [4] was 1 of 6 and 2 of 4; the survivor count (dose: 400.0 mg/kg/injection, schedule: Q04DX003 (ip), vehicle: saline) is 0 of 4 and 1 of 6.
With `Clc1ccc(Cl)c(OCC2=NCCN2)c1`, the survivor count by setting is: (dose: 80.0 mg/kg/injection, schedule: Q04DX003 (ip), vehicle: Klucel (hydroxypropylcellulose) (HPC)) 0 of 6; (dose: 100.0 mg/kg/injection, schedule: Q01DX009 (ip), vehicle: Klucel (hydroxypropylcellulose) (HPC)) 0 of 6; (dose: 200.0 mg/kg/injection, schedule: Q01DX009 (ip), vehicle: Klucel (hydroxypropylcellulose) (HPC)) 0 of 6; under setting [5], 0 of 6.
For `CCCCCCCCCCCCCCC[N+](C)(C)C`, the survivor count reads like this: (dose: 50.0 mg/kg/injection, schedule: Q01DX009 (ip), vehicle: saline) 0 of 6; (dose: 100.0 mg/kg/injection, schedule: Q01DX009 (ip), vehicle: saline) 0 of 6; (dose: 200.0 mg/kg/injection, schedule: Q01DX009 (ip), vehicle: saline) 0 of 6; (dose: 400.0 mg/kg/injection, schedule: Q01DX009 (ip), vehicle: saline) 0 of 6.
Take `CC1N=C(c2ccccc2)C2(c3ccccc3)C(C)N12` (stereo not drawn): under setting [6], the survivor count was 0 of 3.
In the case of `O=C1NC(c2ccccc2)(c2ccccc2)C(=O)N1SC(Cl)(Cl)Cl`, the survivor count (dose: 100.0 mg/kg/injection, schedule: Q04DX002 (ip), vehicle: Klucel (hydroxypropylcellulose) (HPC)) was 1 of 3 and 2 of 3; the survivor count (dose: 200.0 mg/kg/injection, schedule: Q04DX002 (ip), vehicle: Klucel (hydroxypropylcellulose) (HPC)) is listed as 0 of 3; the survivor count (dose: 400.0 mg/kg/injection, schedule: Q04DX002 (ip), vehicle: Klucel (hydroxypropylcellulose) (HPC)) is 0 of 3.
Take `S=C(S)NCCCNC(=S)S`: the survivor count under setting [7] is listed as 3 of 6.
In the case of `COc1cc([C@@H]2c3cc4c(cc3[C@H](OC(C)=O)[C@H]3COC(=O)[C@@H]23)OCO4)cc(OC)c1OC`, the T/C under setting [8] is 138 % of control. The survivor count was 3 of 6 under setting [9]; 4 of 6 under setting [10]; 0 of 6 (dose: 525.0 mg/kg/injection, schedule: Q07DX Z (ip), vehicle: methylcellulose (MC)).
With `CC1(/C=N\NC(N)=O)CC2C=CC1C2` (stereo not drawn), the survivor count under setting [10] is 3 of 6.
`CCCCCCCCCCCC[N+](CC)(CC)CC(=O)O`: the survivor count under setting [9] is recorded as 2 of 6; the survivor count under setting [3] is 3 of 6; the survivor count (dose: 115.0 mg/kg/injection, schedule: Q01DX009 (ip), vehicle: saline with Tween-80) is recorded as 1 of 6; the survivor count (dose: 170.0 mg/kg/injection, schedule: Q01DX009 (ip), vehicle: saline with Tween-80) is given as 3 of 6; the survivor count under setting [4] is on record as 3 of 6; the survivor count under setting [7] was 2 of 6.
On to `CC1(C)N=C(N)N=C(N)N1c1ccc(CCCCc2ccccc2Cl)cc1`, for which the survivor count runs as follows: (dose: 50.0 mg/kg/injection, schedule: Q01DX001 (ip), vehicle: Klucel (hydroxypropylcellulose) (HPC)) 3 of 6; (dose: 100.0 mg/kg/injection, schedule: Q01DX001 (ip), vehicle: Klucel (hydroxypropylcellulose) (HPC)) 0 of 6; under setting [2], 1 of 6; (dose: 200.0 mg/kg/injection, schedule: Q01DX001 (ip), vehicle: Klucel (hydroxypropylcellulose) (HPC)) 1 of 6; under setting [11], 0 of 6; under setting [6], 0 of 6. In addition, the survivor count under setting [12] is 1 of 6.
For the compound `NCc1ccc(NC(=O)c2ccc(C(=O)Nc3ccc(CN)cc3)c(N)c2)cc1`, the survivor count was 0 of 6 (dose: 84.0 mg/kg/injection, schedule: Q01DX Z (ip), vehicle: water) and 0 of 6 (dose: 168.0 mg/kg/injection, schedule: Q01DX Z (ip), vehicle: water).
Take `Cc1cc(CSC2=NCCN2)c(C)cc1CSC1=NCCN1`: the survivor count (dose: 200.0 mg/kg/injection, schedule: Q04DX002 (ip), vehicle: saline with Tween-80) is reported as 0 of 3 and the survivor count (dose: 400.0 mg/kg/injection, schedule: Q04DX002 (ip), vehicle: saline with Tween-80) is reported as 0 of 3.
For the compound `N=C(N)SCC(O)c1ccccc1` (stereo not drawn), under setting [5], the survivor count is 0 of 6.
Turning to `C=Cc1c(C)c2cc3[nH]c(cc4nc(cc5nc(cc1[nH]2)C(C)=C5CCC(=O)O)C(CCC(=O)O)=C4C)c(C)c3C=C`, the survivor count is 6 of 6 (dose: 100.0 mg/kg/injection, schedule: Q01DX009 (ip), vehicle: saline with Tween-80) and 6 of 6 under setting [13].
For `CCCCC(CC)CNCCOC(=O)c1ccc(N)cc1` (stereo not drawn), the survivor count under setting [1] is recorded as 2 of 6.
Consider `Clc1ccc(COC(Cn2ccnc2)c2ccc(Cl)cc2Cl)cc1` (stereo not drawn), for which the survivor count by setting is: (dose: 100.0 mg/kg/injection, schedule: Q04DX002 (ip), vehicle: DMSO) 1 of 3; (dose: 200.0 mg/kg/injection, schedule: Q04DX002 (ip), vehicle: DMSO) 1 of 3; (dose: 400.0 mg/kg/injection, schedule: Q04DX002 (ip), vehicle: DMSO) 0 of 3.
In the case of `O=C1OC2C(I)C3CC1C2C3` (stereo not drawn), the survivor count under setting [13] is 5 of 6.
Consider `CN(C)Cc1ccncc1`, for which, under setting [7], the survivor count was 0 of 6.
As for `Cc1cc(/C=C/c2ccc3cc(N(C)C)ccc3[n+]2C)c(C)n1-c1ccccc1`, the survivor count reads like this: (dose: 3.13 mg/kg/injection, schedule: Q01DX009 (ip), vehicle: saline with Tween-80) 6 of 6; (dose: 6.25 mg/kg/injection, schedule: Q01DX009 (ip), vehicle: saline with Tween-80) 4 of 6; (dose: 12.5 mg/kg/injection, schedule: Q01DX009 (ip), vehicle: saline with Tween-80) 0 of 6; (dose: 25.0 mg/kg/injection, schedule: Q01DX009 (ip), vehicle: saline with Tween-80) 0 of 6; under setting [8], 0 of 6.
Regarding `O=C(OCCl)c1ccc(Cl)cc1Cl`, the survivor count under setting [11] is 6 of 6.
Take `Cc1ccc2c(c1)CCCN2C=O`: the survivor count under setting [12] is reported as 2 of 6.
As for `CN(C)CCCN=C1Nc2ccccc2C(=NCCCN(C)C)Nc2ccccc21`, the survivor count is, setting by setting: (dose: 100.0 mg/kg/injection, schedule: Q04DX003 (ip), vehicle: acid diluted with saline) 0 of 6; (dose: 200.0 mg/kg/injection, schedule: Q04DX003 (ip), vehicle: acid diluted with saline) 0 of 6; (dose: 400.0 mg/kg/injection, schedule: Q04DX003 (ip), vehicle: acid diluted with saline) 0 of 6.
On to `CSc1cccc[n+]1C`, for which the survivor count is reported as 3 of 6 (dose: 150.0 mg/kg/injection, schedule: Q01DX001 (ip), vehicle: saline) and 0 of 6 (dose: 300.0 mg/kg/injection, schedule: Q01DX001 (ip), vehicle: saline).
